Measured data: PubChem BioAssay AID602196 (INSERM, 2012)

Assay: 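Knock-downs that protect lung cancer cells from cisplatin or sensitise them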
Cells: human A549 lung cancer cells
Reagent: siRNA pair against human genes
Time to read-out: 48 h transfection before cisplatin; time from cisplatin to read-out not stated
Challenge: cisplatin at a dose killing half of control-siRNA cells; exact dose and duration not given
Detection: 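Cisplatin cell death as a shift from the 50% death seen with control siRNA; siRNAs toxic or growth-blocking alone scored 0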
Direction: two-siRNA summed score (-2 to +2): higher = both siRNAs protect from cisplatin killing; -2 means both sensitise; mean protection from cisplatin (shift in death) and protection from cisplatin (shift in death), siRNA C and protection from cisplatin (shift in death), siRNA D: higher = protection from cisplatin killing
Active means: 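Each siRNA scores 0 if harmful alone by LDH or WST-1, otherwise +1 if it reduces and -1 if it increases cisplatin killing; a gene is active when both siRNAs agree (sum +2 or -2)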
Calls: active = both siRNAs shift cisplatin killing the same way; inactive = no consistent shift, or siRNA harmful alone
Shown is one part, drawn at random, of about 23,000 deposited reagents. Over the whole deposit, 455 (2%) were called active. 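Active includes both protection and sensitisation; some change values fall well beyond the stated -50 to +50 range.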 Reagents against one gene are numbered here. The record does not give: the amount of reagent.

The opening 5 entries as a preview:
Gene | reagent | two-siRNA summed score (-2 to +2) | mean protection from cisplatin (shift in death) (%) | protection from cisplatin (shift in death), siRNA C (%) | protection from cisplatin (shift in death), siRNA D (%) | Outcome
PDE8B | 1 | -1 | -7.4 | -18.4 | 3.6 | inactive
C12orf76 | 1 | 1 | 12.2 | 15.7 | 8.7 | inactive
SLC32A1 | 1 | 0 | 4.3 | 7.2 | 1.5 | inactive
LOC439976 | 1 | 0 | -5 | 2.7 | -12.7 | inactive
MAML2 | 1 | 0 | 23 | 14.9 | 31.1 | inactive

Main list, from the start:
Gene | reagent | two-siRNA summed score (-2 to +2) | mean protection from cisplatin (shift in death) (%) | protection from cisplatin (shift in death), siRNA C (%) | protection from cisplatin (shift in death), siRNA D (%) | Outcome
PDE8B | 1 | -1 | -7.4 | -18.4 | 3.6 | inactive
C12orf76 | 1 | 1 | 12.2 | 15.7 | 8.7 | inactive
SLC32A1 | 1 | 0 | 4.3 | 7.2 | 1.5 | inactive
LOC439976 | 1 | 0 | -5 | 2.7 | -12.7 | inactive
MAML2 | 1 | 0 | 23 | 14.9 | 31.1 | inactive
PROSER2 | 1 | 0 | 6.1 | 9.2 | 2.9 | inactive
QRFPR | 1 | 1 | 7.9 | -1.3 | 17.1 | inactive
CCNP | 1 | 0 | 11 | 1 | 21 | inactive
MBD3L2 | 1 | 1 | 23.1 | 12.7 | 33.4 | inactive
SNRPEP2 | 1 | 0 | 16.3 | 16.4 | 16.2 | inactive
HELLS | 1 | 0 | 1.5 | -2.7 | 5.7 | inactive
TEAD4 | 1 | 0 | 6 | 2.5 | 9.5 | inactive
KLHL4 | 1 | 0 | 1.7 | 12.5 | -9 | inactive
CGN | 1 | 0 | 11.2 | 11.7 | 10.7 | inactive
EDEM2 | 1 | 0 | -3.3 | -8.4 | 1.8 | inactive
LOC388939 | 1 | -1 | -1.4 | 10.2 | -13 | inactive
LOC256453 | 1 | 0 | 9.1 | 5.4 | 12.7 | inactive
SMPDL3A | 1 | 0 | 5.2 | 2.9 | 7.6 | inactive
DUSP21 | 1 | 0 | 2.5 | 0.2 | 4.8 | inactive
FLJ46347 (retired record) | 1 | 0 | 1.4 | 10.2 | -7.4 | inactive
LOC389172 | 1 | 1 | 14.1 | 10.9 | 17.3 | inactive
NUP62CL | 1 | 0 | 14.2 | 7.7 | 20.7 | inactive
MEF2C | 1 | -1 | -3.9 | -17.1 | 9.2 | inactive
CSNK1D | 1 | -1 | -12.7 | 8.2 | -33.6 | inactive
CEP57L1P1 | 1 | 2 | 17.4 | 24.4 | 10.3 | active
ZNF774 | 1 | -1 | -1.8 | 9.5 | -13.1 | inactive
HSDL2 | 1 | 1 | 25.5 | 16.5 | 34.4 | inactive
MUC2 | 1 | 0 | 4.2 | -5.9 | 14.3 | inactive
RRM1 | 1 | -1 | -8.5 | -14.3 | -2.7 | inactive
LOC442032 | 1 | 0 | 10.9 | 12.1 | 9.8 | inactive
LOC402458 | 1 | 0 | 5.4 | -4.5 | 15.2 | inactive
KCNK5 | 1 | 0 | -21.2 | -29.1 | -13.3 | inactive
PLBD2 | 1 | -1 | -11.3 | -3.2 | -19.5 | inactive
GPR153 | 1 | 1 | 10.2 | -1.3 | 21.8 | inactive
KLHDC8A | 1 | 0 | -2.8 | -2 | -3.6 | inactive
GRM2 | 1 | 0 | 1.9 | -4.5 | 8.3 | inactive
TIMM21 | 1 | 0 | 3.8 | -1.5 | 9.2 | inactive
LOC441372 | 1 | 1 | 6.6 | 2.2 | 11 | inactive
DIO1 | 1 | 0 | -1.7 | 4.1 | -7.5 | inactive
PHACTR1 | 1 | 0 | 10.2 | 9.7 | 10.7 | inactive
LOC441436 | 1 | 0 | 10.7 | 17.8 | 3.6 | inactive
OR10K2 | 1 | 0 | 5 | 10.6 | -0.6 | inactive
PSRC1 | 1 | 1 | 13.2 | 12.7 | 13.6 | inactive
RFXANK | 1 | 0 | -24.2 | -40.3 | -8.2 | inactive
PHLDB2 | 1 | 1 | 8.8 | 16.1 | 1.4 | inactive
C2CD4B | 1 | 1 | 17.3 | 22.2 | 12.5 | inactive
EMC7 | 1 | 0 | 0.7 | -2.2 | 3.6 | inactive
LOC390550 | 1 | 0 | 7.2 | 5.9 | 8.4 | inactive
SAE1 | 1 | 0 | -10 | -11 | -8.9 | inactive
GALR3 | 1 | 1 | 18.8 | 9.9 | 27.7 | inactive
ZNF254 | 1 | 1 | 12.3 | 5.6 | 19 | inactive
ZNF254 | 2 | 1 | 12.5 | 8.3 | 16.7 | inactive
ZNF569 | 1 | 0 | 4.3 | 5.5 | 3.1 | inactive
FTO | 1 | 0 | -1.2 | 3.9 | -6.3 | inactive
LOC442008 | 1 | 0 | 2.6 | -0.7 | 6 | inactive
CALML4 | 1 | 0 | 2.3 | -0.2 | 4.8 | inactive
LOC391013 | 1 | 0 | 15.8 | 5.6 | 26 | inactive
PTH2 | 1 | 0 | 0.6 | 2.9 | -1.8 | inactive
CCDC85B | 1 | 0 | -12.3 | -4.2 | -20.4 | inactive
MYOZ3 | 1 | 0 | 8.3 | 9.9 | 6.7 | inactive
LOC441900 | 1 | 1 | 25 | 15 | 35 | inactive
LOC389293 | 1 | 0 | 10 | -1.6 | 21.6 | inactive
ST6GAL2 | 1 | 0 | 5 | 2.5 | 7.6 | inactive
PLX-4 | 1 | -1 | -23 | -25.4 | -20.5 | inactive
NUDT8 | 1 | 0 | 5 | -2.3 | 12.4 | inactive
SLC25A5 | 1 | 0 | -6.6 | 4.1 | -17.3 | inactive
LGR5 | 1 | 0 | 12.3 | 13.6 | 11 | inactive
CD163L1 | 1 | 0 | -4.6 | 1.4 | -10.6 | inactive
TESPA1 | 1 | -1 | -5 | 2.1 | -12.1 | inactive
LOC220793 | 1 | 0 | 9 | -8.5 | 26.5 | inactive
GNE | 1 | 1 | 15.9 | 23 | 8.7 | inactive
FLJ40343 | 1 | 0 | -4.5 | -7.9 | -1.2 | inactive
LOC442480 | 1 | -1 | -9.9 | -6.4 | -13.3 | inactive
